These are yes or no findings as the source states them, for the method shown. Some entries that bind do so weakly or less than the wild type.
B1: Ab0340 (antibody, IgG4, V domains shown)
VH: QVTLKESGPVLVKPTETLTLTCTVSGFSLNNARVGVSWIRQPPGKALEWLAHIFSNDEKSYSTSLKSRLTISKDTSKSQVVLTMTNMDPVDTATYYCARSVVTGGYYYEGMDVWGQGTTVTVSS
VL: SYVLTQPPSVSVAPGQTARITCGGSNIGSESVHWYQQKPGQAPVLVVYAESDRPSGIPERFSGSNSGNTATLTISRVEAGDEADYYCQVWEGSSDHVVFGGGTKLTVLG
B2: Ab0361 (antibody, IgG4, V domains shown)
VH: QVTLKESGPVLVKPTETLTLTCTVSGFSLNNARVGVSWIRQPPGKALEWLAHIFSNDEKSYSTSLKSRLTISKDTSKSQVVLTMTNMDPVDTATYYCARSVVTGGYYYEGMDVWGQGTTVTVSS
VL: SYVLTQPPSVSVAPGQTARITCGGSNIGSESVHWYQQKPGQAPVLVVYESSDRPSGIPERFSGSNSGNTATLTISRVEAGDEADYYCQVWEGSSDHVVFGGGTKLTVLG
B3: Ab0344 (antibody, IgG4, V domains shown)
VH: QVTLKESGPVLVKPTETLTLTCTVSGFSLNNARVGVSWIRQPPGKALEWLAHIFSNDEKSYSTSLKSRLTISKDTSKSQVVLTMTNMDPVDTATYYCARSVVTGGYYYEGMDVWGQGTTVTVSS
VL: SYVLTQPPSVSVAPGQTARITCGGSNIGSESVHWYQQKPGQAPVLVVYAASDRPSGIPERFSGSNSGNTATLTISRVEAGDEADYYCQVWEGSSDHVVFGGGTKLTVLG
B4: Ab0326 (antibody, IgG4, V domains shown)
VH: QVTLKESGPVLVKPTETLTLTCTVSGFSLNNARVGVSWIRQPPGKALEWLAHIFSNDEKSYSTSLKSRLTISKDTSKSQVVLTMTNMDPVDTATYYCARSVVTGGYYYEGMDVWGQGTTVTVSS
VL: SYVLTQPPSVSVAPGQTARITCGGSNIGSESVHWYQQKPGQAPVLVVYYESDRPSGIPERFSGSNSGNTATLTISRVEAGDEADYYCQVWEGSSDHVVFGGGTKLTVLG
B5: Ab0355 (antibody, IgG4, V domains shown)
VH: QVTLKESGPVLVKPTETLTLTCTVSGFSLNNARVGVSWIRQPPGKALEWLAHIFSNDEKSYSTSLKSRLTISKDTSKSQVVLTMTNMDPVDTATYYCARSVVTGGYYYEGMDVWGQGTTVTVSS
VL: SYVLTQPPSVSVAPGQTARITCGGSNIGSESVHWYQQKPGQAPVLVVYEYSDRPSGIPERFSGSNSGNTATLTISRVEAGDEADYYCQVWEGSSDHVVFGGGTKLTVLG
B6: Ab0345 (antibody, IgG4, V domains shown)
VH: QVTLKESGPVLVKPTETLTLTCTVSGFSLNNARVGVSWIRQPPGKALEWLAHIFSNDEKSYSTSLKSRLTISKDTSKSQVVLTMTNMDPVDTATYYCARSVVTGGYYYEGMDVWGQGTTVTVSS
VL: SYVLTQPPSVSVAPGQTARITCGGSNIGSESVHWYQQKPGQAPVLVVYAASDRPSGIPERFSGSNSGNTATLTISRVEAGDEADYYCQVWEGASDHVVFGGGTKLTVLG
B7: Ab0357 (antibody, IgG4, V domains shown)
VH: QVTLKESGPVLVKPTETLTLTCTVSGFSLNNARVGVSWIRQPPGKALEWLAHIFSNDEKSYSTSLKSRLTISKDTSKSQVVLTMTNMDPVDTATYYCARSVVTGGYYYEGMDVWGQGTTVTVSS
VL: SYVLTQPPSVSVAPGQTARITCGGSNIGSESVHWYQQKPGQAPVLVVYEASDRPSGIPERFSGSNSGNTATLTISRVEAGDEADYYCQVWEGSSDHVVFGGGTKLTVLG
B8: Ab0354 (antibody, IgG4, V domains shown)
VH: QVTLKESGPVLVKPTETLTLTCTVSGFSLNNARVGVSWIRQPPGKALEWLAHIFSNDEKSYSTSLKSRLTISKDTSKSQVVLTMTNMDPVDTATYYCARSVVTGGYYYEGMDVWGQGTTVTVSS
VL: SYVLTQPPSVSVAPGQTARITCGGSNIGSESVHWYQQKPGQAPVLVVYEESDRPSGIPERFSGSNSGNTATLTISRVEAGDEADYYCQVWHGSSDHVVFGGGTKLTVLG
B9: Ab0360 (antibody, IgG4, V domains shown)
VH: QVTLKESGPVLVKPTETLTLTCTVSGFSLNNARVGVSWIRQPPGKALEWLAHIFSNDEKSYSTSLKSRLTISKDTSKSQVVLTMTNMDPVDTATYYCARSVVTGGYYYEGMDVWGQGTTVTVSS
VL: SYVLTQPPSVSVAPGQTARITCGGSNIGSESVHWYQQKPGQAPVLVVYEHSDRPSGIPERFSGSNSGNTATLTISRVEAGDEADYYCQVWEGSSDHVVFGGGTKLTVLG
B10: Ab0364 (antibody, IgG4, V domains shown)
VH: QVTLKESGPVLVKPTETLTLTCTVSGFSLNNARVGVSWIRQPPGKALEWLAHIFSNDEKSYSTSLKSRLTISKDTSKSQVVLTMTNMDPVDTATYYCARSVVTGGYYYEGMDVWGQGTTVTVSS
VL: SYVLTQPPSVSVAPGQTARITCGGANIGSESVHWYQQKPGQAPVLVVYEESDRPSGIPERFSGSNSGNTATLTISRVEAGDEADYYCQVWEGSSDHVVFGGGTKLTVLG
B11: Ab0330 (antibody, IgG4, V domains shown)
VH: QVTLKESGPVLVKPTETLTLTCTVSGFSLNNARVGVSWIRQPPGKALEWLAHIFSNDEKSYSTSLKSRLTISKDTSKSQVVLTMTNMDPVDTATYYCARSVVTGGYYYEGMDVWGQGTTVTVSS
VL: SYVLTQPPSVSVAPGQTARITCGGSNIGSESVHWYQQKPGQAPVLVVYSESDRPSGIPERFSGSNSGNTATLTISRVEAGDEADYYCQVWAGESDHVVFGGGTKLTVLG
B12: Ab0415 (antibody, IgG4, V domains shown)
VH: QVTLKESGPVLVKPTETLTLTCTVSGFSLNNARVGVSWIRQPPGKALEWLAHIFSNDEKSYSTSLKSRLTISKDTSKSQVVLTMTNMDPVDTATYYCARSVVTGGYYYEGMDVWGQGTTVTVSS
VL: SYVLTQPPSVSVAPGQTARITCGGSNIGSESVHWYQQKPGQAPVLVVYYESDRPSGIPERFSGSNSGNTATLTISRVEAGDEADYYCQVWAGESDHVVFGGGTKLTVLG
B13: Ab0350 (antibody, IgG4, V domains shown)
VH: QVTLKESGPVLVKPTETLTLTCTVSGFSLNNARVGVSWIRQPPGKALEWLAHIFSNDEKSYSTSLKSRLTISKDTSKSQVVLTMTNMDPVDTATYYCARSVVTGGYYYEGMDVWGQGTTVTVSS
VL: SYVLTQPPSVSVAPGQTARITCGGSNIGSESVHWYQQKPGQAPVLVVYEESDRPSGIPERFSGSNSGNTATLTISRVEAGDEADYYCQVWAGSSDHVVFGGGTKLTVLG
B14: Ab0332 (antibody, IgG4, V domains shown)
VH: QVTLKESGPVLVKPTETLTLTCTVSGFSLNNARVGVSWIRQPPGKALEWLAHIFSNDEKSYSTSLKSRLTISKDTSKSQVVLTMTNMDPVDTATYYCARSVVTGGYYYEGMDVWGQGTTVTVSS
VL: SYVLTQPPSVSVAPGQTARITCGGSNIGSESVHWYQQKPGQAPVLVVYSESDRPSGIPERFSGSNSGNTATLTISRVEAGDEADYYCQVWEGASDHVVFGGGTKLTVLG
B15: Ab0416 (antibody, IgG4, V domains shown)
VH: QVTLKESGPVLVKPTETLTLTCTVSGFSLNNARVGVSWIRQPPGKALEWLAHIFSNDEKSYSTSLKSRLTISKDTSKSQVVLTMTNMDPVDTATYYCARSVVTGGYYYEGMDVWGQGTTVTVSS
VL: SYVLTQPPSVSVAPGQTARITCGGSNIGSESVHWYQQKPGQAPVLVVYYESDRPSGIPERFSGSNSGNTATLTISRVEAGDEADYYCQVWEGESDHVVFGGGTKLTVLG
B16: Ab0417 (antibody, IgG4, V domains shown)
VH: QVTLKESGPVLVKPTETLTLTCTVSGFSLNNARVGVSWIRQPPGKALEWLAHIFSNDEKSYSTSLKSRLTISKDTSKSQVVLTMTNMDPVDTATYYCARSVVTGGYYYEGMDVWGQGTTVTVSS
VL: SYVLTQPPSVSVAPGQTARITCGGSNIGSESVHWYQQKPGQAPVLVVYYESDRPSGIPERFSGSNSGNTATLTISRVEAGDEADYYCQVWHGESDHVVFGGGTKLTVLG
B17: Ab0353 (antibody, IgG4, V domains shown)
VH: QVTLKESGPVLVKPTETLTLTCTVSGFSLNNARVGVSWIRQPPGKALEWLAHIFSNDEKSYSTSLKSRLTISKDTSKSQVVLTMTNMDPVDTATYYCARSVVTGGYYYEGMDVWGQGTTVTVSS
VL: SYVLTQPPSVSVAPGQTARITCGGSNIGSESVHWYQQKPGQAPVLVVYEESDRPSGIPERFSGSNSGNTATLTISRVEAGDEADYYCQVWEGASDHVVFGGGTKLTVLG
B18: Ab0358 (antibody, IgG4, V domains shown)
VH: QVTLKESGPVLVKPTETLTLTCTVSGFSLNNARVGVSWIRQPPGKALEWLAHIFSNDEKSYSTSLKSRLTISKDTSKSQVVLTMTNMDPVDTATYYCARSVVTGGYYYEGMDVWGQGTTVTVSS
VL: SYVLTQPPSVSVAPGQTARITCGGSNIGSESVHWYQQKPGQAPVLVVYEASDRPSGIPERFSGSNSGNTATLTISRVEAGDEADYYCQVWHGSSDHVVFGGGTKLTVLG
B19: Ab0352 (antibody, IgG4, V domains shown)
VH: QVTLKESGPVLVKPTETLTLTCTVSGFSLNNARVGVSWIRQPPGKALEWLAHIFSNDEKSYSTSLKSRLTISKDTSKSQVVLTMTNMDPVDTATYYCARSVVTGGYYYEGMDVWGQGTTVTVSS
VL: SYVLTQPPSVSVAPGQTARITCGGSNIGSESVHWYQQKPGQAPVLVVYEESDRPSGIPERFSGSNSGNTATLTISRVEAGDEADYYCQVWEGSSDHVVFGGGTKLTVLG
B20: Ab0338 (antibody, IgG4, V domains shown)
VH: QVTLKESGPVLVKPTETLTLTCTVSGFSLNNARVGVSWIRQPPGKALEWLAHIFSNDEKSYSTSLKSRLTISKDTSKSQVVLTMTNMDPVDTATYYCARSVVTGGYYYEGMDVWGQGTTVTVSS
VL: SYVLTQPPSVSVAPGQTARITCGGSNIGSESVHWYQQKPGQAPVLVVYSSSDRPSGIPERFSGSNSGNTATLTISRVEAGDEADYYCQVWAGSSDHVVFGGGTKLTVLG
B21: Ab0333 (antibody, IgG4, V domains shown)
VH: QVTLKESGPVLVKPTETLTLTCTVSGFSLNNARVGVSWIRQPPGKALEWLAHIFSNDEKSYSTSLKSRLTISKDTSKSQVVLTMTNMDPVDTATYYCARSVVTGGYYYEGMDVWGQGTTVTVSS
VL: SYVLTQPPSVSVAPGQTARITCGGSNIGSESVHWYQQKPGQAPVLVVYSYSDRPSGIPERFSGSNSGNTATLTISRVEAGDEADYYCQVWAGSSDHVVFGGGTKLTVLG

Sequences of proteins named here, by UniProt entry; tags and fusion partners are left off. Residues count along the entry.
UniProt Q86Z14, residues 53-997: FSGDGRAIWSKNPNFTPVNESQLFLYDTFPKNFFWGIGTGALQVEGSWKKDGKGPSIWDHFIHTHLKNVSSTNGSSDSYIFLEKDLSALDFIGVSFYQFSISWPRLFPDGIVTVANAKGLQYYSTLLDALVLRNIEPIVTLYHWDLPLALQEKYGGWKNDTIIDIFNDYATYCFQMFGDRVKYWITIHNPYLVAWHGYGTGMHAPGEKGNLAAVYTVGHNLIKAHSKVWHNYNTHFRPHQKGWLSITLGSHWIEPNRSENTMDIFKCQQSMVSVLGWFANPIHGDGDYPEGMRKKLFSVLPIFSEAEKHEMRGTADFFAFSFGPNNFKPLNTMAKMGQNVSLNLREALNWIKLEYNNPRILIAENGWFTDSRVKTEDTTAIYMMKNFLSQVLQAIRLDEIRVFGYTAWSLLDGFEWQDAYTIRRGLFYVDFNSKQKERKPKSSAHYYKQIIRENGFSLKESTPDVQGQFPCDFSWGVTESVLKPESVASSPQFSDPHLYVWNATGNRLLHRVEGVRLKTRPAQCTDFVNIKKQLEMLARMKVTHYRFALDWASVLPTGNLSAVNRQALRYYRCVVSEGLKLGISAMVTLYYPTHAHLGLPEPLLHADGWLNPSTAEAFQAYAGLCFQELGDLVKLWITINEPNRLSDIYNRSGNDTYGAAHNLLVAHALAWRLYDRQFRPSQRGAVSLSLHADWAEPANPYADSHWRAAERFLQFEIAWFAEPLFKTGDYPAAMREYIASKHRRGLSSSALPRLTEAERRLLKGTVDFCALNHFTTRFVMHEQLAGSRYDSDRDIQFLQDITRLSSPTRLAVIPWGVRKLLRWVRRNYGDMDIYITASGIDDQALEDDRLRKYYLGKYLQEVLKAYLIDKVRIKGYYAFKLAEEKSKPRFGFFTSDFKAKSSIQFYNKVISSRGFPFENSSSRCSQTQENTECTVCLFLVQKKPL

molecular target: human beta-Klotho (KLB) (human) (UniProt Q86Z14); assay: SPR on human KLB; koff (panel C), mean +/- SEM, n=3

binding, binds:
B1
B2
B3
B4
B5
B6
B7
B8
B9
B10
B11
B12
B13
B14
B15

molecular target: human beta-Klotho (KLB) (human) (UniProt Q86Z14); assay: SPR on human KLB; koff (panel C) and KD (panel D), mean +/- SEM, n=3 [D]

binding, binds:
B16
B17
B18
B19
B20
B21

— patent US20220010021A1
